# Data: PMC6479836, “Interaction of Nerve Growth Factor β with Adiponectin and SPARC Oppositely Modulates its Biological Activity” (International Journal of Molecular Sciences, 2019)
# No constants are given. Whether binding was seen depends on the method and setting.
# B1: Nerve growth factor β (NGFβ) from mouse submaxillary glands (ligand, UniProt P01139 122-241, looked up)
# chain: SSTHPVFHMGEFSVCDSVSVWVGDKTTATDIKGKEVTVLAEVNINNSVFRQYFFETKCRASNPVESGCRGIDSKHWNSYCTTTHTFVKALTTDEKQAAWRFIRIDTACVCVLSRKATRRG
# notes: beta-nerve growth factor, mouse, the beta chain from submaxillary glands; The same protein was also tested after boiling (denatured), as a control; source: from mouse submaxillary glands; bought: Alomone Labs
# Target: T1, Recombinant murine full-length adiponectin (murine) (UniProt Q60994)
# T1 sequence: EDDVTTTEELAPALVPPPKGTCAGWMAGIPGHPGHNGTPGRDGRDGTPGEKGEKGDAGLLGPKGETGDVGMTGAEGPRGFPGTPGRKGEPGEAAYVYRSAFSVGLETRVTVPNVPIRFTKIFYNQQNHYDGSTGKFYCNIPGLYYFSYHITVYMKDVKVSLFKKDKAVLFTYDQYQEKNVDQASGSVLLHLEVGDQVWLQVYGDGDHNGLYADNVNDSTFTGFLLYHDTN
# Test: SPR; BIAcore X; full length adiponectin immobilised on CM5 chip; boiled (denatured) NGFβ as analyte; both purified
binder,measurement,value
B1,binding,no binding (condition: NGFβ denatured by boiling)
